Laboratory results taken from paper PMC12275198.
No constants are given. Whether binding was seen depends on the method and setting. In cells and extracts the contact can be indirect. Some results given as binding are weak or reduced against the parent protein; the word gives no strength. Where a sequence is shown, tags or fusion partners need not be part of it.

Amino acid sequences for entries named in this document (tags omitted).
UniProt Q92830: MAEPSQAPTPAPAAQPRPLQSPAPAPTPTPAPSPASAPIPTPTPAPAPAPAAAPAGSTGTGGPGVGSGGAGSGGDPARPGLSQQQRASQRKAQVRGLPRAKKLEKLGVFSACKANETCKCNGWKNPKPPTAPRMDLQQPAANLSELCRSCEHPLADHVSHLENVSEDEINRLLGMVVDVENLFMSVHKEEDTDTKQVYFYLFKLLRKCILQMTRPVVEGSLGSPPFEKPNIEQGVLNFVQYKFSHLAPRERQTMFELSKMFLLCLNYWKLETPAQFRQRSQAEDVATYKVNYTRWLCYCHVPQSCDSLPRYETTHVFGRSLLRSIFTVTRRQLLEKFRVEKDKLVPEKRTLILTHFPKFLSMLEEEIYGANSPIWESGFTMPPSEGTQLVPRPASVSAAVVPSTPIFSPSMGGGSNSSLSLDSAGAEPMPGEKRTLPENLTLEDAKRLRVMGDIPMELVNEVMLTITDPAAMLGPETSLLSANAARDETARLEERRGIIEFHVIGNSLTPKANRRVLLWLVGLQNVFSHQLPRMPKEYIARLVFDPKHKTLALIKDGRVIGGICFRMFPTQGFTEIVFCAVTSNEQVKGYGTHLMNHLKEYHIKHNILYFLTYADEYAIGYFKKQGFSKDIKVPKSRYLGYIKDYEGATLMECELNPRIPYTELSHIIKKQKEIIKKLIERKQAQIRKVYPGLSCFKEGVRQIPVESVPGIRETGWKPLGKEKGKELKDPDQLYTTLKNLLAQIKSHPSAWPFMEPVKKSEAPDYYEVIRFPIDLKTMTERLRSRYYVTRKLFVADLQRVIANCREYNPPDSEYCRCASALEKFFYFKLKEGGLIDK
UniProt Q92831: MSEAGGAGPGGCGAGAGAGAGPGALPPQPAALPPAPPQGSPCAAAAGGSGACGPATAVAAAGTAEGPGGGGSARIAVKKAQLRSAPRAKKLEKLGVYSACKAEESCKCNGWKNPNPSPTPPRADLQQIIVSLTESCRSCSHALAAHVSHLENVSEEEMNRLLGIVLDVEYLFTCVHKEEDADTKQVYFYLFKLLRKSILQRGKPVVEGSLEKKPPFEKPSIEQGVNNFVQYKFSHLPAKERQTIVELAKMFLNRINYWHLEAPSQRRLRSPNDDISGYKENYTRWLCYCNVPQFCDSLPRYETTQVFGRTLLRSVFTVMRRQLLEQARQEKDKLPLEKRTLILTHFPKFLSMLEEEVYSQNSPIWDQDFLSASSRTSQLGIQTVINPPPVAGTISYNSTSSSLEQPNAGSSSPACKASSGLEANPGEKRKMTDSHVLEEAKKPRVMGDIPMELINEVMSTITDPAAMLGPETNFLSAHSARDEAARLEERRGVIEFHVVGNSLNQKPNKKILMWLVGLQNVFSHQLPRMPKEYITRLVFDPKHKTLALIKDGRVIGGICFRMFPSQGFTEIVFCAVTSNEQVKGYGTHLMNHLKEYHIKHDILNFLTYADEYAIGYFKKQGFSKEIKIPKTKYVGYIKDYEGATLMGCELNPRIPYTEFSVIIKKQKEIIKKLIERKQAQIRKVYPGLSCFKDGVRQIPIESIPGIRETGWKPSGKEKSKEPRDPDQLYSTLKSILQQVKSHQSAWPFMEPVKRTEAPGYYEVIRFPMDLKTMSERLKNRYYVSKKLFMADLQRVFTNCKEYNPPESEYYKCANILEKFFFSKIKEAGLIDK

How the values were obtained:
HA-YEATS2-WT = target: T1, HA-YEATS2-WT (UniProt Q9ULM3); test: co-IP; cotransfected cells, lysates fractionated into chromatin portions, then IP of tagged YEATS2 (anti-FLAG or anti-HA) and immunoblot
T1 sequence: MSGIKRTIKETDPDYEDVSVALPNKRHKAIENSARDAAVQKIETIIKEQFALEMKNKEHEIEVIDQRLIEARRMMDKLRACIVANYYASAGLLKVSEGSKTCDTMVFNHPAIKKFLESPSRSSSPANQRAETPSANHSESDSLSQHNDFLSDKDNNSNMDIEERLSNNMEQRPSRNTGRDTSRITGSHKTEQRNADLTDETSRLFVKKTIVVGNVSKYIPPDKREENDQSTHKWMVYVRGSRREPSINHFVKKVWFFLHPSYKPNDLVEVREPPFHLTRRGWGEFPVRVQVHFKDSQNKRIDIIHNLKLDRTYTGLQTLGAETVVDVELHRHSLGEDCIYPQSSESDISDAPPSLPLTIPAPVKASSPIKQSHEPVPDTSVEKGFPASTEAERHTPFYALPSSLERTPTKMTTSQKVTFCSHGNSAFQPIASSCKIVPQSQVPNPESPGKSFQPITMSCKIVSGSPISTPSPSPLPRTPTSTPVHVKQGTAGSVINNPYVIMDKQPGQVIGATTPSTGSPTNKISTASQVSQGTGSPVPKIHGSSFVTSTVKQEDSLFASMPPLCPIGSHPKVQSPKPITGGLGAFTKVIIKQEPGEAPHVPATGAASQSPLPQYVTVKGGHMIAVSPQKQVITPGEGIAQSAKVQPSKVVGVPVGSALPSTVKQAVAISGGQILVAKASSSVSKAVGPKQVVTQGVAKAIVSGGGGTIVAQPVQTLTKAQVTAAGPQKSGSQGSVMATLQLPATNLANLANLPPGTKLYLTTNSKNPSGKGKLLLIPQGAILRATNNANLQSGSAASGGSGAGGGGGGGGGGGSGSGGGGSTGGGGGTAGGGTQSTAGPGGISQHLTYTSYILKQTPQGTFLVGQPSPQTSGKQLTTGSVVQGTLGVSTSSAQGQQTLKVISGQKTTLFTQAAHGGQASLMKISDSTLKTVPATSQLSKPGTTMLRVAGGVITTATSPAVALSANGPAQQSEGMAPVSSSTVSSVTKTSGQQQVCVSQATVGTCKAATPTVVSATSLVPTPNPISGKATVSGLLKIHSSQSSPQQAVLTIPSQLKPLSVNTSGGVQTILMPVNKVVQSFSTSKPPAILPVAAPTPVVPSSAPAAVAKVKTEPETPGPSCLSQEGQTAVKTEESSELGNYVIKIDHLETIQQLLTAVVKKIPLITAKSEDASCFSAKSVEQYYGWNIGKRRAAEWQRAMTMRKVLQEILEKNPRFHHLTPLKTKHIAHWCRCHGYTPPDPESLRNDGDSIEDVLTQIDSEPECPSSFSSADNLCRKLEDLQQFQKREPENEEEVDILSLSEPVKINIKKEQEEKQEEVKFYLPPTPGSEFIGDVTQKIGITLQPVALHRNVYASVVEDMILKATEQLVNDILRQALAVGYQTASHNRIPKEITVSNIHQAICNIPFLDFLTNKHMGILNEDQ

HA-YEATS2-T604A = target: T2, HA-YEATS2-T604A (UniProt Q9ULM3); test: as above
T2 sequence: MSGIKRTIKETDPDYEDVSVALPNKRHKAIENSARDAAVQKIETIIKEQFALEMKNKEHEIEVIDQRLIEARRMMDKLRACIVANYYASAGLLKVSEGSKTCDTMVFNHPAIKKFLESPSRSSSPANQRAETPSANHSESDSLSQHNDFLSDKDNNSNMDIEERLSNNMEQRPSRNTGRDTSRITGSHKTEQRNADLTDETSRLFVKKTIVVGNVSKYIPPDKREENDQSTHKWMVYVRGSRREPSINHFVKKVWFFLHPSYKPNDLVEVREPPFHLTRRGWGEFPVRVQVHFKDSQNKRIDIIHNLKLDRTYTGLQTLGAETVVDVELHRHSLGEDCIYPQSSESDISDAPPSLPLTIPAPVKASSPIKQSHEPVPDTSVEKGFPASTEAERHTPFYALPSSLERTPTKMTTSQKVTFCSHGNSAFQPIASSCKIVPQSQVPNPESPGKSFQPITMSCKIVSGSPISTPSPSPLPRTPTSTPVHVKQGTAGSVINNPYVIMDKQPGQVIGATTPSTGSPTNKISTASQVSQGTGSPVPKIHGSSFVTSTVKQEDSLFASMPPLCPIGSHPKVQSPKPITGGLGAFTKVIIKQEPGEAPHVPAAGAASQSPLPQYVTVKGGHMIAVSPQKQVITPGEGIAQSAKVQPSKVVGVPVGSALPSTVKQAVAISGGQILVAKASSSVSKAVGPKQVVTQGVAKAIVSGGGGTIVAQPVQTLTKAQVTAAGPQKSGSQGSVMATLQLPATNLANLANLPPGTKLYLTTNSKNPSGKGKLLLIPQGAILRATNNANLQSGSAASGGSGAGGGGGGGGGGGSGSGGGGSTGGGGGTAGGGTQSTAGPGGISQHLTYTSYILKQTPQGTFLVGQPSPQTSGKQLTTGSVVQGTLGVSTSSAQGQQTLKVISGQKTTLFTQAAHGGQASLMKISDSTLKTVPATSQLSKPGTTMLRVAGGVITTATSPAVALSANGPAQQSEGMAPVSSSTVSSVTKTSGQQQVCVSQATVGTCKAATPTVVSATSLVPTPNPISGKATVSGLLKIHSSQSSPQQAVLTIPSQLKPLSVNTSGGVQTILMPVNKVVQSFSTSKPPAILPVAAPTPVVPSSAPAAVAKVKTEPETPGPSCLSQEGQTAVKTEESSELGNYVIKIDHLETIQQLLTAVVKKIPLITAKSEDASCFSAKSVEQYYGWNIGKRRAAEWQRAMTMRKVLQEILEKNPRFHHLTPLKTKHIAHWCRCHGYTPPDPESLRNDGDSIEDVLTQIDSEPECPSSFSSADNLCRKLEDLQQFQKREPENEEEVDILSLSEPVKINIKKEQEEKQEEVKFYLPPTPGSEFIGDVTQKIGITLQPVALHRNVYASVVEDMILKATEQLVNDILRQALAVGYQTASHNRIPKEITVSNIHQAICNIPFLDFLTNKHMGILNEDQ

Substance | binding (HA-YEATS2-WT) | binding (HA-YEATS2-T604A)
FLAG-GCN5 (from UniProt Q92830 1-837) (enzyme) | binds | binds
FLAG-PCAF (from UniProt Q92831 1-832) (enzyme) | binds | binds
